Reference: PubChem BioAssay AID504467 (National Center for Advancing Translational Sciences (NCATS), 2011)
Among all 330,000 compounds or so, about 7,700 (2.3%) were called active. The shares of active, inactive and inconclusive entries below differ from those in the screen. Calls come from the whole dose curve; as a rule, active = well fitted inhibition curve with a large enough effect; inconclusive = small, poorly fitted or top-dose-only effect, or effect the other way; inactive = flat fitted curve, though single readings scatter. Where the call is inconclusive, the potency comes from a doubtful curve fit.

experiment: qHTS screen for small molecules that inhibit ELG1-dependent DNA repair in human embryonic kidney (HEK293T) cells expressing luciferase-tagged ELG1; conditions: HEK293T ELG1-luciferase reporter, luminescence, 16 h, DNA damage induced by 5-fluorouridine; activity change, negative = inhibition: at 46.1 µM (top of the series); note: nearly all actives have a fitted effect of over 55% in size
How it was run: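 Step one: seed 2,000 cells per well. Step two: pin-transfer compound or DMSO alongside 5-fluorouridine. Step three: incubate 16 hr, 37 °C, 5% CO2. Step four: add ONE-Glo, wait 30 min, read luminescence.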
% is set by controls: 0 for no effect and ±100 for the full control effect; potency is the fitted concentration of half-maximal effect.

| SMILES | activity change, negative = inhibition | Potency |
| --- | --- | --- |
| O=C(O)c1sccc1SCc1ccc(Cl)cc1Cl | inactive: 21.8% | – |
| Cc1noc(C)c1COC(=O)c1cccnc1SCC(=O)Nc1ccc2c(c1)OCO2 | – | inconclusive: 32.6 µM [inhibitor, single point] |
| CC(=O)N(c1ccccc1)c1c(F)c(F)c(F)c(F)c1F | – | inconclusive: 11.6 µM [activator, partial curve, poor fit] |
| CS(=O)(=O)Nc1ccc(C2=NN(S(C)(=O)=O)C(c3ccc4c(c3)OCO4)C2)cc1 (stereo not drawn) | – | inconclusive: 16.4 µM [activator, partial curve] |
| CC(=O)c1cccc(NC(=O)C2CCCN(S(=O)(=O)c3cccc4cccnc34)C2)c1 (stereo not drawn) | – | active: 16.4 µM |
| CCOC(=O)c1c(C)[nH]c(C)c1C(=O)CSc1nnc(-c2ccncc2)n1Cc1ccccc1 | – | inconclusive: 18.4 µM [inhibitor, single point] |
| CC(Oc1ccccc1F)C(=O)NNC(=O)c1cccc(S(=O)(=O)N2CCN(C)CC2)c1 (stereo not drawn) | inactive: 6.34% | – |
| COc1ccc(-c2nnc(NC(=O)c3ccc(S(=O)(=O)N4CCCc5ccccc54)cc3)o2)cc1 | – | inconclusive: 2.06 µM [inhibitor, partial curve, poor fit] |
| CCOC(=O)c1nc(Nc2ccc(N3CCOCC3)cc2)c2ccccc2n1 | – | inconclusive: 29.1 µM [inhibitor, single point] |
| COc1ccc(/C=C/CN2CCCC(CCC(=O)NCc3ccc(F)c(F)c3)C2)cc1 (stereo not drawn) | inactive: 4.47% | – |
| Cc1ccc(-n2nc3c(c2NC(=O)c2ccc4c(c2)OCO4)CSC3)cc1 | – | inconclusive: 9.2 µM [activator, partial curve, poor fit] |
| Cc1ccc(CC(=O)N/N=C/c2ccc3c(c2)OCO3)cc1 | – | inconclusive: 14.6 µM [activator, partial curve] |
| Cc1ccccc1CC1SC(N)=NC1=O (stereo not drawn) | – | inconclusive: 0.0041 µM [inhibitor, full curve, poor fit] |
| CCOC(=O)c1c(NC(=S)Nc2ccc(OC)cc2)sc2c1CCCCC2 | inactive: 23% | – |
| C/C(=N\NC(=O)c1ccc(C(=O)N/N=C(\C)c2ccco2)o1)c1ccco1 | – | inconclusive: 8.2 µM [inhibitor, partial curve] |
| COc1ccc(/C=C/C(=O)c2ccc[nH]2)cc1OC | – | inconclusive: 16.4 µM [activator, partial curve] |
| CCOC(=O)C1=C(CP(=O)(c2ccccc2)c2ccccc2)NC(=O)NC1c1ccc(OC)cc1 (stereo not drawn) | inactive: -14.2% | – |
| COc1ccc(OCC(=O)Nc2ccc(C)c(S(=O)(=O)N(C)C)c2)cc1 | – | inconclusive: 29.1 µM [inhibitor, single point] |
| Cc1[nH]c2ccc(-c3nnc(SCC(=O)c4ccccc4F)o3)cc2c1C | inactive: -15.2% | – |
| CN(C)Cc1cc(CCNC(=O)c2ccc(Cl)cc2)ccc1O | – | inconclusive: 23.1 µM [activator, partial curve, poor fit] |
| Cc1cc(C(=O)CSc2nnc(-c3ccccc3)n2-c2ccccc2)c(C)n1-c1ncn[nH]1 | – | inconclusive: 29.1 µM [inhibitor, single point] |
| Cc1cc(C)cc(NC(=S)NCC2CCN(C(C)c3ccccc3)C2)c1 (stereo not drawn) | – | inconclusive: 2.91 µM [activator, full curve, poor fit] |

Whole records, quoted from the list. Order of values: activity change, negative = inhibition	Potency
`Cc1cc(C(=O)CSc2nnc(-c3ccccc3)n2-c2ccccc2)c(C)n1-c1ncn[nH]1` as listed: –	inconclusive: 29.1 µM [inhibitor, single point]
`O=C(O)c1sccc1SCc1ccc(Cl)cc1Cl` as listed: inactive: 21.8%	–

More records:

| SMILES | activity change, negative = inhibition | Potency |
| --- | --- | --- |
| CC(C)C(OC(=O)c1cc2sccc2n1C)C(=O)NCC1CCCO1 (stereo not drawn) | – | inconclusive: 32.6 µM [inhibitor, single point] |
| Cn1c(=O)c2c(ncn2CC(=O)Nc2nc3ccc(F)cc3s2)n(C)c1=O | – | inconclusive: 10.3 µM [activator, partial curve, poor fit] |
| CSc1ncccc1C(=O)Nc1cccc(S(=O)(=O)N2CCCCC2)c1 | inactive: -21% | – |
| Cc1ccccc1NC(=O)Nc1cc(-c2ccccc2)nn1C | – | inconclusive: 23.1 µM [activator, single point] |
| Cc1ccc(N(Cc2cc3cc(C)ccc3[nH]c2=O)C(=O)c2cccs2)cc1 | inactive: -5.14% | – |
| COCCCNC(=S)NNC(=O)C1CC1c1ccc(C(C)(C)C)cc1 (stereo not drawn) | – | inconclusive: 18.3 µM [inhibitor, single point] |
| CCCCNC(=S)N=Nc1c(O)n(Cc2ccccc2)c2ccccc12 | inactive: -2.49% | – |
| Cn1c(/C=C(\C#N)C(N)=S)ccc1-c1ccc(Br)cc1 | – | inconclusive: 16.4 µM [activator, single point] |
| C=CCNC(=O)/C(=C/c1cn(-c2ccccc2)nc1-c1cccc([N+](=O)[O-])c1)NC(=O)c1ccccc1 | – | inconclusive: 25.9 µM [inhibitor, single point] |
| O=C(CCc1nnc(Cc2c[nH]c3ccccc23)o1)NC1CCCC1 | inactive: -0.327% | – |
| Cc1nc2ccccc2n1/N=C/c1ccc([N+](=O)[O-])s1 | – | inconclusive: 10.3 µM [inhibitor, partial curve] |
| CCC(C)c1ccccc1N1CC(C(=O)Nc2cccc(S(=O)(=O)N3CCOCC3)c2)CC1=O (stereo not drawn) | inactive: -7.33% | – |
| CCOC(=O)Nc1ccc(C(=O)Oc2ccccc2)c(O)c1 | – | inconclusive: 20.6 µM [activator, single point] |
| COc1ccc2cc(C)c3nnc(SCC(=O)Nc4nc(-c5ccc(F)cc5)cs4)n3c2c1 | – | inconclusive: 6.51 µM [inhibitor, single point] |
| O=C(Cn1nc(-c2ccccc2)ccc1=O)Nc1cccc(NC(=O)c2ccccn2)c1 | inactive: -4.5% | – |
| Cc1ccc([N+](=O)[O-])cc1N(CC(=O)Nc1ccc(S(=O)(=O)Nc2cccc(C(F)(F)F)c2)cc1)S(C)(=O)=O | inactive: -3.39% | – |
| COc1ccc(C(=O)CCC(=O)Nc2cccc(Cl)c2)cc1 | inactive: -11.3% | – |
| CN(Cc1cn(-c2ccccc2)nc1-c1ccc2c(c1)OCO2)Cc1nccn1C | – | inconclusive: 29.1 µM [inhibitor, single point] |
| CN1CCN(Cc2nc3ccccc3c(=O)n2Cc2nc(-c3cccc([N+](=O)[O-])c3)cs2)CC1 | – | inconclusive: 20.6 µM [inhibitor, single point] |
| Cn1c(=O)n(C)c2cc(NS(=O)(=O)c3ccccc3)ccc21 | – | inconclusive: 23.1 µM [activator, partial curve] |
| O=C(CCc1ccc(S(=O)(=O)NC2CCCCC2)cc1)NCc1ccccn1 | – | inconclusive: 23.1 µM [activator, single point] |
